The values below come from the supplement of paper PMC6733853.

Chains of the proteins cited; added tags and fusions are not shown.
UniProt P33535, whole entry: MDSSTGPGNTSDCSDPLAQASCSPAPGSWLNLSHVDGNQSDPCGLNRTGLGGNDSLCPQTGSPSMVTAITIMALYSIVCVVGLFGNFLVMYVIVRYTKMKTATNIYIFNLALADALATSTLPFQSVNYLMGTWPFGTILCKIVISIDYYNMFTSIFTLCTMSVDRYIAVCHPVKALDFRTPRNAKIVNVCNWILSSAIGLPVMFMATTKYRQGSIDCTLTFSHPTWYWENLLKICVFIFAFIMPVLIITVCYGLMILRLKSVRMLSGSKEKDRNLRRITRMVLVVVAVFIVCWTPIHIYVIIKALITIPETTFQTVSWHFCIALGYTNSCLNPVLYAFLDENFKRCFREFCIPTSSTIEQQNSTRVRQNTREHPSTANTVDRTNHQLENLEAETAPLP

One may read the pEC50 as the EC50 on a negative log10 scale, so that one unit is a factor of ten.

This assay has as its target mu opioid receptor (rat) (UniProt P33535). Particulars: receptor: rat MOR.

In turn, `COc1cccc(C2(O)CCCCC2CN(C)C)c1` (stereo not given) [Tramadol] gave a pEC50 (Gαi1) of 4.82; a pEC50 (Gαi2) of 5.09; a pEC50 (Gαo) of 4.79; a pEC50 (Kir) of 4.54; a pEC50 (cAMP) of 5.41.
